The source of these data is paper PMC7732990.

Sequences of proteins named here, by UniProt entry; tags and fusion partners are left off.
UniProt O00629: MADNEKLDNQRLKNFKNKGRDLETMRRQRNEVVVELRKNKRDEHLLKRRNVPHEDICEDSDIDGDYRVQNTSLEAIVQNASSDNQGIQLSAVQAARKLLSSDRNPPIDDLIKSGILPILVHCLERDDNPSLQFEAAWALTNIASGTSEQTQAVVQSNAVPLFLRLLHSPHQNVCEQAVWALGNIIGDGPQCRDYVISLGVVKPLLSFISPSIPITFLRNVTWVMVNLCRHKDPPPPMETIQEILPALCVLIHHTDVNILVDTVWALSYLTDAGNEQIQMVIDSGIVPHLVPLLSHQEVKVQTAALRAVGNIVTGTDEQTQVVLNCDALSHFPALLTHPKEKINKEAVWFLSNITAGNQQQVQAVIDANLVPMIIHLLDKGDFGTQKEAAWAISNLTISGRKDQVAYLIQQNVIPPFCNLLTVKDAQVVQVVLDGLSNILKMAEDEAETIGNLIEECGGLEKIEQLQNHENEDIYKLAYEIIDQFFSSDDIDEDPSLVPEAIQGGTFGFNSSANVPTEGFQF
UniProt P17980: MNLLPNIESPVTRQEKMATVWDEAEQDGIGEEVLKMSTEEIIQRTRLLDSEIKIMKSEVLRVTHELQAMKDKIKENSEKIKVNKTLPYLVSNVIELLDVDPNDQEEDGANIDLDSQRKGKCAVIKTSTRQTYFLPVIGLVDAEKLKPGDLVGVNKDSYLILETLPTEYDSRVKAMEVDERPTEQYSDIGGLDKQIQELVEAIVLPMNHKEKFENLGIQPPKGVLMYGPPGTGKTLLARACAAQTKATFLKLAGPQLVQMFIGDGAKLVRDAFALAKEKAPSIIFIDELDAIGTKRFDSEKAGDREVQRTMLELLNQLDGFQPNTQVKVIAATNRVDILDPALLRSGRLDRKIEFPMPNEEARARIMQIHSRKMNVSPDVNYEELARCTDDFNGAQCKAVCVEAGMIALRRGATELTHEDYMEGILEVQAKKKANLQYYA
UniProt Q9Y265: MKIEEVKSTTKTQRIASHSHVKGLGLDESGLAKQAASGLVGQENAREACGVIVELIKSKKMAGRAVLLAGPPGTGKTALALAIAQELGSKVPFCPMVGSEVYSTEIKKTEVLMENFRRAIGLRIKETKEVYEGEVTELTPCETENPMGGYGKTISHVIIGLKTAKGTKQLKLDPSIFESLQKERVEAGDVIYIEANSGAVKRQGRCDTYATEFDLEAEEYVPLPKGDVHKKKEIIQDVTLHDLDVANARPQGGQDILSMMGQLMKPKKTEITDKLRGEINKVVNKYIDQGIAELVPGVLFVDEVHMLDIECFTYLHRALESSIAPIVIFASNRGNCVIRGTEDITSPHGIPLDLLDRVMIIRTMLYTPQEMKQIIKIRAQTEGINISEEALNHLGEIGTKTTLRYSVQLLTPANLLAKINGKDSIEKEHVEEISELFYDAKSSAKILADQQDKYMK
UniProt O00505: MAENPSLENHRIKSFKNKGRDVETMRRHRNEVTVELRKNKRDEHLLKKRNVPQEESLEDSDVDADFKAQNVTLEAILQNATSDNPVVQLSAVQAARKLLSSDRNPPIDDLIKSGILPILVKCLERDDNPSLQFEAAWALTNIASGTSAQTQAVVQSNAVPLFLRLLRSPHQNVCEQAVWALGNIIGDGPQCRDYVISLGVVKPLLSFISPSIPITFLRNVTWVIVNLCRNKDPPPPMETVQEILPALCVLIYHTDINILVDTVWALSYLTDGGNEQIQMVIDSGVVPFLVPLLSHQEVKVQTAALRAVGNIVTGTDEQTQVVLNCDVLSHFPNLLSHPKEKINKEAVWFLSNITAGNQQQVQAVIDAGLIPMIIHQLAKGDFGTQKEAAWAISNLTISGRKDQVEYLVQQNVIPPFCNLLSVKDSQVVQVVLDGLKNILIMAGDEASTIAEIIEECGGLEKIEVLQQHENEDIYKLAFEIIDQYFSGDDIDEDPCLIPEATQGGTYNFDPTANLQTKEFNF

Experiment [1] concerns the target T1, ZFAND3 fused with a biotin ligase (ZFAND3-BirA) (UniProt Q9H8U3).
T1 sequence: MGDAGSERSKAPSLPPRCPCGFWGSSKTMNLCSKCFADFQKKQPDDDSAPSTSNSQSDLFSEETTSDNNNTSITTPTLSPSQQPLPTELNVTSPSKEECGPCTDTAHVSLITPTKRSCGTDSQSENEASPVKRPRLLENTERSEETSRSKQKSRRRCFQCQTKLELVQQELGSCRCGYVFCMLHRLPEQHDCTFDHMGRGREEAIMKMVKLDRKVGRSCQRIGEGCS
In words: proximity labelling; BioID: myc-BioID-ZFAND3 stably in NCH644 GSCs, 100 µM D-biotin 48 h, streptavidin magnetic beads, on-bead digestion, LC-MS/MS; nontransduced cells as control.

Another experiment concerns the target T2, FLAG-tagged ZFAND3 (UniProt Q9H8U3).
T2 sequence: T1 sequence
As to the kind of experiment: affinity purification with mass spectrometry; FLAG M2 antibody on Dynabeads M-270 Epoxy, whole cell lysate of NI GSCs overexpressing ZFAND3-FLAG, IP buffer with 100 mM NaCl, 4 °C 30 min, on-bead digestion, LC-MS/MS.

The target in experiment [2] is T1, ZFAND3 fused with a biotin ligase (ZFAND3-BirA). As to the kind of experiment: proximity labelling; BioID: myc-BioID-ZFAND3 stably in NCH644 GSCs, 100 µM D-biotin 48 h, streptavidin magnetic beads, on-bead digestion, LC-MS/MS; nontransduced cells as control. The source holds these as a separate data set.

Where two headings read alike, the source gives them in different places. These are yes or no findings as the source states them, for the method shown. Binding seen in cells or lysates may run through a third protein. These calls come from enrichment with a bait or labelling near it, and not all partners need be listed. Where a sequence is shown, tags or fusion partners need not be part of it.

With KPNA4 (from UniProt O00629 1-521), the binding entry (in experiment [1]; with FLAG-tagged ZFAND3) was “binds” in each case.
Regarding PSMC3 (from UniProt P17980 1-439), the binding entry (in experiment [1]; with FLAG-tagged ZFAND3) was “binds” in each case.
In the case of Pontin (from UniProt Q9Y265 1-456), the binding result (in experiment [1]; with FLAG-tagged ZFAND3) was “binds” throughout.
For KPNA3 (from UniProt O00505 1-521), the binding entry (in experiment [1]; with FLAG-tagged ZFAND3) was “binds” each time.

B1: SF1 (protein, UniProt Q15637 1-639)
chain: MATGANATPLDFPSKKRKRSRWNQDTMEQKTVIPGMPTVIPPGLTREQERAYIVQLQIEDLTRKLRTGDLGIPPNPEDRSPSPEPIYNSEGKRLNTREFRTRKKLEEERHNLITEMVALNPDFKPPADYKPPATRVSDKVMIPQDEYPEINFVGLLIGPRGNTLKNIEKECNAKIMIRGKGSVKEGKVGRKDGQMLPGEDEPLHALVTANTMENVKKAVEQIRNILKQGIETPEDQNDLRKMQLRELARLNGTLREDDNRILRPWQSSETRSITNTTVCTKCGGAGHIASDCKFQRPGDPQSAQDKARMDKEYLSLMAELGEAPVPASVGSTSGPATTPLASAPRPAAPANNPPPPSLMSTTQSRPPWMNSGPSESRPYHGMHGGGPGGPGGGPHSFPHPLPSLTGGHGGHPMQHNPNGPPPPWMQPPPPPMNQGPHPPGHHGPPPMDQYLGSTPVGSGVYRLHQGKGMMPPPPMGMMPPPPPPPSGQPPPPPSGPLPPWQQQQQQPPPPPPPSSSMASSTPLPWQQNTTTTTTSAGTGSIPPWQQQQAAAAASPGAPQMQGNPTMVPLPPGVQPPLPPGAPPPPPPPPPGSAGMMYAPPPPPPPPMDPSNFVTMMGMGVAGMPPFGMPPAPPPPPPQN
For B1, the binding result (in the experiment with FLAG-tagged ZFAND3; in experiment [2]) was “binds” throughout.

B2: PPIL4 (protein, UniProt Q8WUA2 1-492)
chain: MAVLLETTLGDVVIDLYTEERPRACLNFLKLCKIKYYNYCLIHNVQRDFIIQTGDPTGTGRGGESIFGQLYGDQASFFEAEKVPRIKHKKKGTVSMVNNGSDQHGSQFLITTGENLDYLDGVHTVFGEVTEGMDIIKKINETFVDKDFVPYQDIRINHTVILDDPFDDPPDLLIPDRSPEPTREQLDSGRIGADEEIDDFKGRSAEEVEEIKAEKEAKTQAILLEMVGDLPDADIKPPENVLFVCKLNPVTTDEDLEIIFSRFGPIRSCEVIRDWKTGESLCYAFIEFEKEEDCEKAFFKMDNVLIDDRRIHVDFSQSVAKVKWKGKGGKYTKSDFKEYEKEQDKPPNLVLKDKVKPKQDTKYDLILDEQAEDSKSSHSHTSKKHKKKTHHCSEEKEDEDYMPIKNTNQDIYREMGFGHYEEEESCWEKQKSEKRDRTQNRSRSRSRERDGHYSNSHKSKYQTDLYERERSKKRDRSRSPKKSKDKEKSKYR
Consider B2, for which the binding result (with FLAG-tagged ZFAND3; in experiment [2]) was “binds” throughout.

B3: Treacle (protein, UniProt Q13428 1-1488)
chain: MAEARKRRELLPLIYHHLLRAGYVRAAREVKEQSGQKCFLAQPVTLLDIYTHWQQTSELGRKRKAEEDAALQAKKTRVSDPISTSESSEEEEEAEAETAKATPRLASTNSSVLGADLPSSMKEKAKAETEKAGKTGNSMPHPATGKTVANLLSGKSPRKSAEPSANTTLVSETEEEGSVPAFGAAAKPGMVSAGQADSSSEDTSSSSDETDVEGKPSVKPAQVKASSVSTKESPARKAAPAPGKVGDVTPQVKGGALPPAKRAKKPEEESESSEEGSESEEEAPAGTRSQVKASEKILQVRAASAPAKGTPGKGATPAPPGKAGAVASQTKAGKPEEDSESSSEESSDSEEETPAAKALLQAKASGKTSQVGAASAPAKESPRKGAAPAPPGKTGPAVAKAQAGKREEDSQSSSEESDSEEEAPAQAKPSGKAPQVRAASAPAKESPRKGAAPAPPRKTGPAAAQVQVGKQEEDSRSSSEESDSDREALAAMNAAQVKPLGKSPQVKPASTMGMGPLGKGAGPVPPGKVGPATPSAQVGKWEEDSESSSEESSDSSDGEVPTAVAPAQEKSLGNILQAKPTSSPAKGPPQKAGPVAVQVKAEKPMDNSESSEESSDSADSEEAPAAMTAAQAKPALKIPQTKACPKKTNTTASAKVAPVRVGTQAPRKAGTATSPAGSSPAVAGGTQRPAEDSSSSEESDSEEEKTGLAVTVGQAKSVGKGLQVKAASVPVKGSLGQGTAPVLPGKTGPTVTQVKAEKQEDSESSEEESDSEEAAASPAQVKTSVKKTQAKANPAAARAPSAKGTISAPGKVVTAAAQAKQRSPSKVKPPVRNPQNSTVLARGPASVPSVGKAVATAAQAQTGPEEDSGSSEEESDSEEEAETLAQVKPSGKTHQIRAALAPAKESPRKGAAPTPPGKTGPSAAQAGKQDDSGSSSEESDSDGEAPAAVTSAQVIKPPLIFVDPNRSPAGPAATPAQAQAASTPRKARASESTARSSSSESEDEDVIPATQCLTPGIRTNVVTMPTAHPRIAPKASMAGASSSKESSRISDGKKQEGPATQVSKKNPASLPLTQAALKVLAQKASEAQPPVARTQPSSGVDSAVGTLPATSPQSTSVQAKGTNKLRKPKLPEVQQATKAPESSDDSEDSSDSSSGSEEDGEGPQGAKSAHTLGPTPSRTETLVEETAAESSEDDVVAPSQSLLSGYMTPGLTPANSQASKATPKLDSSPSVSSTLAAKDDPDGKQEAKPQQAAGMLSPKTGGKEAASGTTPQKSRKPKKGAGNPQASTLALQSNITQCLLGQPWPLNEAQVQASVVKVLTELLEQERKKVVDTTKESSRKGWESRKRKLSGDQPAARTPRSKKKKKLGAGEGGEASVSPEKTSTTSKGKAKRDKASGDVKEKKGKGSLGSQGAKDEPEEELQKGMGTVEGGDQSNPKSKKEKKKSDKRKKDKEKKEKKKKAKKASTKDSESPSQKKKKKKKKTAEQTV
As for B3, the binding entry (in the experiment with FLAG-tagged ZFAND3; in experiment [2]) was “binds” each time.
